This note sets out measurements from patent US20170107579A1, “E1 ENZYME MUTANTS AND USES THEREOF” (Millennium Pharmaceuticals, Inc., priority 2011, published 2017).

The chains behind the UniProt entries cited, without tags or fusion partners. Where a name states a change or a piece, a line headed by the entry shows the natural chain unless it says otherwise. Residues count along the entry.
UniProt Q8TBC4, whole entry A171T: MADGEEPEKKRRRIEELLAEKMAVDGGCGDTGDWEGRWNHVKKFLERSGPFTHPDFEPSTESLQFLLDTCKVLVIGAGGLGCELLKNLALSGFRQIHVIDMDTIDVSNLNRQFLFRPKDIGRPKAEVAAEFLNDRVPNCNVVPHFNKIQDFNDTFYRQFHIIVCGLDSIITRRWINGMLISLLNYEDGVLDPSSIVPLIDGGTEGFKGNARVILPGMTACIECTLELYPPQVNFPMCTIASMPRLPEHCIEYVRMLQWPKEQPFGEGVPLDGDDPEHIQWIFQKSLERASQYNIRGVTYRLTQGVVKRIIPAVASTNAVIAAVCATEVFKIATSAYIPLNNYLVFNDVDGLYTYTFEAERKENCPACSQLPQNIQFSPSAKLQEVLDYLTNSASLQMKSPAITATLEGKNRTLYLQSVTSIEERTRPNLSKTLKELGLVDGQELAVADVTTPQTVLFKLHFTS
UniProt Q8TBC4, whole entry: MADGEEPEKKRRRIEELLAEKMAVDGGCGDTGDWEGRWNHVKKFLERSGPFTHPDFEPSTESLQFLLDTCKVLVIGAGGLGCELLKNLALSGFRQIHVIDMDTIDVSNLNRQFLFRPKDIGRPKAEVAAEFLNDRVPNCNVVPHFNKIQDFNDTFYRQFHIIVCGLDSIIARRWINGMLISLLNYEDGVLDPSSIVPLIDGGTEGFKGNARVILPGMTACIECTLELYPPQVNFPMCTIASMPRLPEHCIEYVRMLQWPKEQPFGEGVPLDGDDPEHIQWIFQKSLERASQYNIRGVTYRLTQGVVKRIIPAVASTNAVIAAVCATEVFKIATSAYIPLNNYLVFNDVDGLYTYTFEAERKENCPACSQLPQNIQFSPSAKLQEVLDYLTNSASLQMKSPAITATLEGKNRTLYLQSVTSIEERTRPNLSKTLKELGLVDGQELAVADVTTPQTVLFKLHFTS
UniProt Q15843, 1-76 partner limits assumed: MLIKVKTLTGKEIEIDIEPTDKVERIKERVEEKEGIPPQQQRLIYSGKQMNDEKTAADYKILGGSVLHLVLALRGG
UniProt Q13564, whole entry partner: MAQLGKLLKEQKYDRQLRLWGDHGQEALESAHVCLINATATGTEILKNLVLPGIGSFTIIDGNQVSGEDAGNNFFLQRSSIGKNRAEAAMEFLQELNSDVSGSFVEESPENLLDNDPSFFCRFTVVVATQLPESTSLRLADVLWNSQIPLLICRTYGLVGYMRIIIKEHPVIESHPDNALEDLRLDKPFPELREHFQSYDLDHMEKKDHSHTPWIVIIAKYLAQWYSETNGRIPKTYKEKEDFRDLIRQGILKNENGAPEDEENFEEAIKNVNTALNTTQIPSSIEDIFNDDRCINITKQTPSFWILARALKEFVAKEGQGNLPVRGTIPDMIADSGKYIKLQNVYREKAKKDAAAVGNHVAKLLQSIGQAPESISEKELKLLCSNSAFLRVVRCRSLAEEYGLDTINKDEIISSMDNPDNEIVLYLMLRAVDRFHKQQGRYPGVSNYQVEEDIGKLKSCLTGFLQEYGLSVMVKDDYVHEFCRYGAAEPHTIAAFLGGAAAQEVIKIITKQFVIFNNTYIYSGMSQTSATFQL

“And” between values parts separate entries of the source, which are not always exact repeats. Identical values can stand only once. Like-named read-outs stand apart in the source and are kept apart here. The match of structure and compound is tentative.

The target of assay [1] is UBA3 variant with A171T mutation (NAE) (Homo sapiens, UniProt Q8TBC4, A171T). The assay is described as follows: NAE HTRF assay, IC50 at KM for ATP (120 μM). Conditions: for A171T/WT: ratio of IC50 A171T mutant to IC50 wild type; for IC50: read-out: NAE Mutant A171T IC50, UBA3 A171T mutant, HTRF assay at KM for ATP, 120 μM. (In general: TR-FRET usually uses a lanthanide donor and a delayed reading to cut background.)

For another assay, the target named is wild type UBA3 (NAE) (Homo sapiens, UniProt Q8TBC4). The assay is described as follows: NAE HTRF assay, IC50 at KM for ATP (20 μM). The settings on record: read-out: NAE WT IC50.

With `COC1Cc2ccccc2C1Nc1cc(NC2CC(O)C(COS(N)(=O)=O)C2)ncn1` (stereo not shown), the A171T/WT was 18 in assay [1] (PCT publication WO 2006/) and 56 in assay [1] (PCT publication WO 2008/). Besides, the IC50 at wild type UBA3 (NAE) is 2.5 nM and 2.2 nM.
Regarding `NS(=O)(=O)OC[C@H]1O[C@@H](n2cnc3c(N[C@H]4CCc5ccccc54)ncnc32)[C@H](O)[C@@H]1O`, in assay [1], the A171T/WT is 22 and 44. The IC50 in assay [1] (PCT publication WO 2006/) amounted to 12 nM; in assay [1] (PCT publication WO 2007/), 200 nM; in assay [1] (PCT publication WO 2008/), 280 nM.
Turning to `NS(=O)(=O)OC[C@H]1O[C@@H](n2cnc3c(N[C@@H](CO)c4ccccc4)ncnc32)[C@H](O)[C@@H]1O`, the IC50 at wild type UBA3 (NAE) is 11 nM and 12 nM.
Regarding `NS(=O)(=O)OC[C@H]1O[C@@H](n2cnc3c(NCc4ccc5c(c4)OCO5)ncnc32)[C@H](O)[C@@H]1O`, the figures for the A171T/WT in assay [1] (PCT publication WO 2006/) and in assay [1] (PCT publication WO 2007/) were 87 and 25, respectively. In addition, the IC50 in assay [1] is 260 nM and 200 nM.
In the case of `CC1(C)C[C@H](Nc2ncnc3c2ccn3[C@@H]2C[C@@H](COS(N)(=O)=O)[C@@H](O)C2)c2ccc(Cl)cc21`, the IC50 in assay [1] is 230 nM and 440 nM.
With `NS(=O)(=O)OC[C@H]1O[C@@H](n2cnc3c(N[C@@H]4c5ccccc5C[C@@H]4O)ncnc32)[C@H](O)[C@@H]1O`, the A171T/WT in assay [1] is 3.
Consider `NS(=O)(=O)OC[C@H]1O[C@@H](n2cnc3c(C#Cc4ccccc4)ncnc32)[C@H](O)[C@@H]1O`, for which the A171T/WT in assay [1] (PCT publication WO 2006/, phenylethynyl purin-9-yl compound) stood at 56; in assay [1] (PCT publication WO 2008/, inden-1-ylamino pyrimidin-4-yl compound), 1204. Further, the IC50 in assay [1] (PCT publication WO 2006/, Example number I-5) was found to be 18 nM; in assay [1] (PCT publication WO 2008/, Example number I-5), 5900 nM.
For `CC(=O)Nc1ncnc2c1ccn2C1CC(O)C(COS(N)(=O)=O)C1` (stereo not shown), the results for the A171T/WT in assay [1] (PCT publication WO 2007/) and in assay [1] (PCT publication WO 2008/) were 3 and 30, respectively. Moreover, the IC50 in assay [1] is 340 nM and 210 nM.
With `NS(=O)(=O)OC[C@H]1O[C@@H](n2cnc3c(NCc4ccc(F)cc4)ncnc32)[C@H](O)[C@@H]1O`, the IC50 turned out to be 160 nM in assay [1] (PCT publication WO 2006/) and 55 nM in assay [1] (PCT publication WO 2007/).

The term IC50 denotes the concentration at which inhibition is half-maximal.
